According to PubChem BioAssay AID1347075 (National Center for Advancing Translational Sciences (NCATS), 2019):
“And” between values parts separate entries of the source, which are not always exact repeats. Identical values can stand only once. Out of some 400,000 compounds screened, about 5,500 (1.4%) were called active. Inconclusive results, whose numbers are uncertain, are shown with a selection of clear calls. Calls follow the shape of the dose curve; as a rule, active = well fitted cell-killing curve with a large enough effect; inconclusive = small, poorly fitted or top-dose-only effect, or effect the other way; inactive = flat fitted curve, though single readings scatter. Potencies of inconclusive entries are doubtful fits and often do not repeat.

Test: qHTS assay for MDR1-selective chemotherapeutics: Primary screen using the parental adenocarcinoma cell KB-3-1; also: nearly all actives have a fitted effect of over 60% in size
Conditions: KB-3-1 viability, CellTiter-Glo ATP luminescence, 72 h; activity change, negative = cytotoxic: at 46.1 µM (top of the series)
How it was run: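 Cytotoxicity in the drug-sensitive parental line KB-3-1 was scored as loss of CellTiter-Glo luminescence following 72 h incubation with compound. Values come from curve fitting of normalized concentration-response data.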
% is scaled to controls: 0 for no effect and ±100 for the full control effect; potency is read from the fitted curve at half-maximal effect.

| Structure (SMILES) | Potency | activity change, negative = cytotoxic |
| --- | --- | --- |
| Cc1cccc(-n2nnnc2SCC(=O)Nc2ccc(N3CCN(C)CC3)cc2)c1 | inconclusive: 29.1 µM [cytotoxic, partial curve, poor fit] |  |
| CCc1nnc(NC(=O)c2ccc3c(c2)C(=O)N(C(C)(C)C)C3=O)s1 | inconclusive: 29.1 µM [rising, single point] |  |
| Cc1ccc(NC(=O)Cn2cc(S(=O)(=O)Cc3ccc(F)cc3)c3ccccc32)cc1Cl | inconclusive: 18.4 µM [cytotoxic, single point] |  |
| CCCn1cc(NC(=O)C2CC(c3cccc(Br)c3)=NO2)cn1 (centres undefined) |  | inactive: 17.6% |
| CC(C)[C@H](NS(=O)(=O)c1ccccc1F)C(=O)NC1CCCCC1 |  | inactive: 7.18% |
| CCc1ccc(NC(=O)CSC2=C(C#N)C(c3ccco3)C3=C(CCCC3=O)N2)cc1 (centres undefined) | inconclusive: 20.6 µM [cytotoxic, single point] |  |
| O=C(Nc1ccccc1Cl)c1ccc([N+](=O)[O-])o1 | active: 23.1 µM |  |
| NC(=O)C1C2C=CC(C2)C1c1ccccc1 (centres undefined) |  | inactive: 15.8% |
| O=C(C1CCN(S(=O)(=O)c2ccc(Br)s2)CC1)N1CCN(c2cccc(C(F)(F)F)c2)CC1 | inconclusive: 20.6 µM [cytotoxic, partial curve, poor fit] |  |
| CCCCNc1cccc2c1S(=O)(=O)N(CCCC)CC(COCc1ccccc1)O2 (centres undefined) |  | inactive: 0% |
| CCCSc1ncc(Cl)c(C(=O)Nc2sc3c(c2C(=O)OC)CCCC3)n1 | inconclusive: 3.66 µM [rising, partial curve, poor fit] |  |
| COc1ccc2c(c1)[C@@H]1[C@H](CO2)[C@H](c2ccccc2)[C@]2(C)C(=O)Nc3ccc(C)cc3C(=O)N12 | inconclusive: 20.6 µM [cytotoxic, single point] |  |
| Cc1ccc(NC(=S)NC(NC(=O)c2ccccc2C)C(Cl)(Cl)Cl)c(C)c1 (centres undefined) | inconclusive: 29.1 µM [cytotoxic, single point] |  |
| COc1cc2c(NC3CCN(C)CC3)nc(N3CCCN(C)CC3)nc2cc1OCCCCN | inconclusive: 29.1 µM [cytotoxic, single point] |  |
| Cc1ccc(C)c(S(=O)(=O)N2CCN(C(=O)C3CCN(C(=O)c4ccc(F)cc4)CC3)CC2)c1 |  | inactive: -24.1% |
| Cc1ccc(S(=O)(=O)Nc2ccc3nc(-c4ccc(F)cc4)oc3c2)cc1 |  | inactive: -1.73% |
| CCCCOc1ncnc2c1[nH]c1ccc(C)cc12 | inconclusive: 20.6 µM [cytotoxic, single point] |  |
| NC(=S)Nc1cccc(-c2n[nH]c(=S)o2)c1 | inconclusive: 29.1 µM [rising, single point] |  |
| CCCCCCNc1c(C(=O)OCC)c(=O)[nH]c2ccccc12 | inconclusive: 18.4 µM [cytotoxic, partial curve, poor fit] |  |
| Nc1cc[n+](CC(=O)Nc2ccccc2)cc1 |  | inactive: -17.3% |
| O=C(NCc1ccncc1)C1Cc2c(-c3ccc4c(c3)OCO4)ccnc2O1 (centres undefined) | inconclusive: 29.1 µM [cytotoxic, single point] |  |
| CC1=CC(C)(C)N2C(=O)C3(NCCc4c3[nH]c3ccccc43)c3cc(C)cc1c32 (centres undefined) | inconclusive: 29.1 µM [cytotoxic, single point] |  |

| Structure (SMILES) | Potency | activity change, negative = cytotoxic |
| --- | --- | --- |
| O=C(Cn1cc2c(n1)CCCCC2)NCCCN1CCOCC1 |  | inactive: 0.287% |
| Cc1nc(/N=C(\N)NC(=O)NC2CCCCC2)nc2ccccc12 | inconclusive: 29.1 µM [cytotoxic, single point] |  |
| CC(C)Cc1cc(C(=O)Nc2ccc3c(c2)OCO3)no1 | inconclusive: 20.6 µM [cytotoxic, single point] |  |
| O=C(Nc1ccccc1)Nc1ccc2nnsc2c1 | inconclusive: 18.4 µM [cytotoxic, single point] |  |
| COc1ccc(-c2c(C#N)sc(C(N)=O)c2-c2ccc(OC)cc2)cc1 | inconclusive: 29.1 µM [cytotoxic, single point] |  |
| COc1ccc(CNc2ncnc3cc(Cl)ccc23)cc1OC | inconclusive: 18.4 µM [cytotoxic, partial curve] |  |
| CCCCCCC[n+]1ccc(/C=C/c2c(C)[nH]c3ccccc23)cc1 | active: 0.651 µM |  |
| CC(=O)[C@H]1CC[C@H]2[C@@H]3CCC4=CC(=O)CC[C@]4(C)[C@H]3CC[C@]12C | active: 13 µM and inconclusive: 18.4 µM [cytotoxic, partial curve] |  |
| Cc1ccc(/C=N/NC(=O)c2ccc(Br)o2)s1 |  | inactive: -5.34% |
| CCc1cccc(N2C(=O)N(Cc3c(F)cccc3Cl)c3ccccc3S2(=O)=O)c1 |  | inactive: -18.2% |
| CCCc1c(-c2ccc(F)cc2F)ncn1Cc1cccc(-c2ccccc2)c1 | inconclusive: 23.1 µM [cytotoxic, single point] |  |
| N#CC1=C(SCC(=O)Nc2ccccc2)NC(=O)CC1c1ccc(O)cc1 (centres undefined) |  | inactive: -5.94% |
| Cc1cc(C)c(C#N)c(SCc2nnc(-c3ccccc3[N+](=O)[O-])o2)n1 |  | inactive: -2.1% |
| O=C(c1ccc2c(=O)n(Cc3ccco3)c(=S)[nH]c2c1)N1CCN(Cc2ccccc2)CC1 | inconclusive: 29.1 µM [cytotoxic, single point] |  |
| Cc1cccc(/C=C2\Sc3ccc(C(=O)N4CCC(C(N)=O)CC4)cc3N(C)C2=O)c1 | inconclusive: 20.6 µM [cytotoxic, single point] |  |
| Nc1c(C(=O)Nc2ccccc2)sc2nc(-c3ccco3)ccc12 | inconclusive: 29.1 µM [cytotoxic, single point] |  |
| CCOc1c(Cl)cc(CNCC(O)c2ccccc2)cc1OC (centres undefined) | inconclusive: 29.1 µM [cytotoxic, single point] |  |
| Fc1ccc(NC(=S)Nc2ccccc2OC(F)F)cc1Cl | inconclusive: 29.1 µM [cytotoxic, single point] |  |
| CSc1nnc(-c2sccc2OCc2ccc(C)cc2)n1C | inconclusive: 20.6 µM [cytotoxic, single point] |  |
| Cc1ccc(-c2cc(C(F)(F)F)n3nc(C(=O)Nc4ccon4)cc3n2)cc1C |  | inactive: -2.38% |
| COc1cccc(/C=N/NC(=O)c2cc(-c3ccccn3)nc3ccccc23)c1O | inconclusive: 29.1 µM [cytotoxic, single point] |  |
| Cc1cc(/C=N/NC(=O)CC2(C)OCCO2)c(C)n1-c1ccc(Cl)c(Cl)c1 | inconclusive: 23.1 µM [cytotoxic, partial curve, poor fit] |  |
